# Laboratory results from the supplement of paper PMC4807443.
# Where a name gives a salt, the structure may show the parent alone. The list shows a part of the results. The numbers are fractions of the control, whatever unit the source prints. Most values lie at the level of the controls, where differences are scatter.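 MIN6, a mouse insulinoma beta-cell line, stably carries a lentiviral reporter where Pdx1 and Ins1 promoters each drive a nuclear fluorescent protein; Hoechst staining and automated imaging counted cells. Drugs were candidate hits if Ins1 promoter readout exceeded two median absolute deviations from DMSO controls while Pdx1 activity stayed near normal.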
# Test system: MIN6
# Assay: % Pdx1+ Ins1+ (double-positive, mature) cells relative to DMSO control (fold of DMSO control); higher = more mature Ins1 promoter-active cells
# Details: 8.5 µM; 48 h; glucose 5 mM
row,Compound,% Pdx1+ Ins1+
1,Cc1c(Cl)cccc1Nc1ccccc1C(=O)O [Tolfenamic acid],0.935
2,CCCSc1ccc2[nH]c(NC(=O)OC)nc2c1 [Albendazole],1.09
3,CO[C@H]1/C=C/O[C@@]2(C)Oc3c(C)c(O)c4c(O)c(c(/C=N/N5CCN(C)CC5)c(O)c4c3C2=O)NC(=O)/C(C)=C\C=C\[C@H](C)[C@H](O)[C@@H](C)[C@@H](O)[C@@H](C)[C@H](OC(C)=O)[C@@H]1C [Rifampicin],0.848
4,CC[C@H]1OC(=O)[C@H](C)[C@@H](O[C@H]2C[C@@](C)(OC)[C@@H](O)[C@H](C)O2)[C@H](C)[C@@H](O[C@@H]2O[C@H](C)C[C@H](N(C)C)[C@H]2O)[C@](C)(O)C[C@@H](C)C(=O)[C@H](C)[C@@H](O)[C@]1(C)O [Erythromycin],0.947
5,O=C1c2ccccc2C(=O)C1c1ccccc1 [Phenindione],0.801
6,Clc1ccc2c(c1)C(N1CCNCC1)=Nc1ccccc1O2 [Amoxapine],1.03
7,O=C(O)CCc1nc(-c2ccccc2)c(-c2ccccc2)o1 [Oxaprozin],1.02
8,c1ccc(CC2=NCCN2)cc1 [Tolazoline hydrochloride],1.02
9,CC(C)(Oc1ccc(CCNC(=O)c2ccc(Cl)cc2)cc1)C(=O)O [Bezafibrate],0.956
10,OCCN1CCN(CCCN2c3ccccc3Sc3ccc(C(F)(F)F)cc32)CC1 [Fluphenazine dihydrochloride],0.995
11,C[C@]12CCC(=O)C=C1CC[C@@H]1[C@@H]2C(=O)C[C@@]2(C)[C@H]1CC[C@]2(O)C(=O)CO [Cortisone],1.16
12,COCCCC/C(=N\OCCN)c1ccc(C(F)(F)F)cc1 [Fluvoxamine maleate],0.814
13,O=C(O)C1CCCNC1 (racemic) [(±)-Nipecotic acid],0.896
14,CN(C)[C@@H]1C(O)=C(C(N)=O)C(=O)[C@@]2(O)C(O)=C3C(=O)c4c(O)cccc4[C@@](C)(O)[C@H]3C[C@@H]12 [Tetracycline hydrochloride],1.03
15,O=C(O)COC(=O)Cc1ccccc1Nc1c(Cl)cccc1Cl [Aceclofenac],1.05
16,CC1CC(OC(=O)C(O)c2ccccc2)CC(C)(C)N1C (centres undefined) [Eucatropine hydrochloride],0.974
17,C1CCN2C[C@@H]3C[C@@H](CN4CCCC[C@@H]34)[C@H]2C1 [Sparteine (-)],0.969

# A different layout for some results above.
row	Compound	% Pdx1+ Ins1+
11	C[C@]12CCC(=O)C=C1CC[C@@H]1[C@@H]2C(=O)C[C@@]2(C)[C@H]1CC[C@]2(O)C(=O)CO [Cortisone]	1.16
12	COCCCC/C(=N\OCCN)c1ccc(C(F)(F)F)cc1 [Fluvoxamine maleate]	0.814
13	O=C(O)C1CCCNC1 (racemic) [(±)-Nipecotic acid]	0.896

# The listing continues.

row,Compound,% Pdx1+ Ins1+
1,COc1ccc2c(OC)c3ccoc3nc2c1OC [Skimmianine],1
2,CCN1CCC[C@H]1CNC(=O)c1c(OC)ccc(Br)c1OC [Remoxipride Hydrochloride],0.954
3,Cc1nnc(NS(=O)(=O)c2ccc(N)cc2)s1 [Sulfamethizole],0.932
4,C[C@H]1C[C@H]2[C@@H]3CCC4=CC(=O)C=C[C@]4(C)[C@@]3(F)[C@@H](O)C[C@]2(C)[C@@]1(O)C(=O)CO [Betamethasone],0.98
5,Oc1ccc(OCc2ccccc2)cc1 [Monobenzone],0.648
6,CC(C(=O)O)c1ccc(N2Cc3ccccc3C2=O)cc1 (centres undefined) [Indoprofen],0.86
7,CC1=Nc2ccc(Cl)cc2S(=O)(=O)N1 [Diazoxide],1.05
8,Cc1ccc(Cl)c(Nc2ccccc2C(=O)O)c1Cl [Meclofenamic acid sodium salt monohydrate],1.07
9,COC(=O)Nc1nc2ccc(SC(C)C)cc2[nH]1 [Methiazole],0.943
10,CCN1CCN(C(=O)N[C@@H](C(=O)N[C@@H]2C(=O)N3C(C(=O)O)=C(CSc4nnnn4C)CS[C@H]23)c2ccc(O)cc2)C(=O)C1=O [Cefoperazone dihydrate],0.958
11,CCCCNc1ccc(C(=O)OCCOCCOCCOCCOCCOCCOCCOCCOCCOC)cc1 [Benzonatate],1.07
12,CCn1nc(C(=O)O)c(=O)c2cc3c(cc21)OCO3 [Cinoxacin],0.866
13,Cc1cc(/C=C/c2ccc3cc(N(C)C)ccc3[n+]2C)c(C)n1-c1ccccc1 [Pyrvinium pamoate],0.0824
14,O=C(O)/C=C/c1ccc(Cn2ccnc2)cc1 [Ozagrel hydrochloride],0.874
15,CC[C@H]1OC(=O)[C@H](C)[C@@H](O[C@H]2C[C@@](C)(OC)[C@@H](O)[C@H](C)O2)[C@H](C)[C@@H](O[C@@H]2O[C@H](C)C[C@H](N(C)C)[C@H]2O)[C@](C)(O)C[C@@H](C)[C@@H]2N[C@@H](COCCOC)O[C@H]([C@H]2C)[C@]1(C)O [Dirithromycin],0.969
16,O=C1CC2(CCCC2)CC(=O)N1CCCCN1CCN(c2ncccn2)CC1 [Buspirone hydrochloride],0.93
17,CC(C)CC(=O)N[C@H](C(=O)N[C@H](C(=O)N[C@@H](CC(C)C)[C@@H](O)CC(=O)N[C@@H](C)C(=O)N[C@@H](CC(C)C)[C@@H](O)CC(=O)O)C(C)C)C(C)C [Pepstatin A],0.985
